Measurements from PubChem BioAssay AID2685 (National Center for Advancing Translational Sciences (NCATS), 2010).
The whole screen tested about 320,000 compounds, of which about 2,100 (0.66%) were called active. This list was built around the results that the source calls inconclusive (neither active nor inactive); the mix of calls is not that of the screen. Calls follow the shape of the dose curve; as a rule, active = well fitted inhibition curve with a large enough effect in the signal ratio, with a control signal flat (not every such curve was filed as active); inconclusive = small, poorly fitted or top-dose-only effect, or effect the other way, or a change in a side signal; inactive = flat fitted curve, though single readings scatter; the % refers to the signal ratio. Where the call is inconclusive, the potency comes from a doubtful curve fit.

Test: qHTS Assay for Lipid Storage Modulators in Drosophila S3 Cells
Conditions: BODIPY lipid droplet fluorescence, 18-24 h, cells fed with added oleic acid; lipid storage change, negative = inhibition: at 46.1 µM (top of the series) unless noted
In short: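 Drosophila S3 cells got compounds at several concentrations plus oleic acid (400 uM solution). Laser-scanning cytometry with 488 nm excitation read lipid droplets at 500-530 nm and cells at 575-640 nm. Percent activity was relative to 20 uM Triacsin C.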
% is scaled to controls: 0 for no effect and ±100 for the full control effect; potency is read from the fitted curve at half-maximal effect.

| Structure (SMILES) | lipid storage change, negative = inhibition | Potency |
| --- | --- | --- |
| Cc1c(OCC(=O)N2C[C@H]3C[C@@H](C2)c2cccc(=O)n2C3)ccc2c3c(c(=O)oc12)CCCC3 | inconclusive: 45.8% | – |
| CC(=O)OCC(COC(C)=O)OC(C)=O | inconclusive: -13% | – |
| COc1ccc(C2Nc3ccccc3C(=O)N2c2ccc(C)cc2)cc1COc1ccccn1 (stereo not given) | inconclusive: 19.2% | – |
| O=C(Nc1ccccc1)NC1CC2CCC(C1)N2Cc1nnnn1Cc1ccc2c(c1)OCO2 (stereo not given) | – | inconclusive: 0.58 µM [activator, partial curve, poor fit] |
| O=C(CN(Cc1ccc(F)cc1)S(=O)(=O)c1ccc(S(=O)(=O)N2CCOCC2)cc1)Nc1ccccc1 | inconclusive: 10.5% | – |
| CSc1ccccc1OCc1cc(C(=O)NC(C)Cc2cccc(C)n2)no1 (stereo not given) | inconclusive: -42.6% | – |
| Cc1cc(C)c(NC(=O)CSc2nncn2-c2cccnc2)c(C)c1 | – | inconclusive: 11.6 µM [activator, partial curve] |
| C=CCn1c(SCC(=O)NC2CCCCC2)nnc1C(C)NC(=O)c1cccs1 (stereo not given) | inconclusive: -1.89% | – |
| CCn1ncc([N+](=O)[O-])c1C(=O)Nc1nc2cccc(C)c2s1 | inconclusive: 22.5% | – |
| Cc1nn(Cc2c(Cl)cccc2Cl)c(C)c1NC(=O)Cn1nc([N+](=O)[O-])c(Cl)c1C | inconclusive: 169% | – |
| O=C(COC(=O)/C=C/c1cccc([N+](=O)[O-])c1)NCCCN1CCCC1=O | inconclusive: 13.5% | – |
| C[C@@H]1CC=C[C@H]2[C@H]1C(=O)N(Cc1ccccc1)[C@H]2c1ccc2ccccc2c1Br | – | inconclusive: 29.1 µM [falling, single point] |
| CCOC(=O)c1c(NC(=O)C2CCCN(S(=O)(=O)c3ccc(C)cc3)C2)sc2c1CCCC2 (stereo not given) | inconclusive: 0.322% | – |
| COc1cccc(NC(=O)CN(C)C(=O)CSc2nc3ccccc3s2)c1 | – | inconclusive: 5.8 µM [activator, full curve, poor fit] |
| CS(=O)(=O)N(CC(=O)Nc1ccccc1)Cc1ccc(Cl)cc1 | inconclusive: -30.7% | – |
| Nc1nc2c(s1)C(=O)CCC2 | – | inconclusive: 2.31 µM [falling, full curve] |
| O=C(NC(=S)Nc1ccccn1)c1ccc([N+](=O)[O-])cc1 | inconclusive: 21.8% | – |
| COc1ccccc1-n1c(SCC(=O)Nc2cccc(C(=O)O)c2)nnc1-c1ccccc1O | – | inconclusive: 29.1 µM [activator, single point] |
| CCCn1c(NC(=O)c2ccccc2)nc2ccccc21 | inconclusive: 165% | – |
| O=C(NNC(=O)c1ccc2ccccc2c1)Nc1ccc(F)cc1 | inconclusive: 18.7% | – |
| C=CCn1c(=O)c2ccccc2n2c(SCC(=O)NCc3cccs3)nnc12 | inconclusive: -25.7% | – |
| CCOc1ccccc1NC(=O)Nc1ccc2c(c1)OCO2 | inconclusive: 30.6% | – |
| CC(C)[C@H](NC(N)=O)C(=O)NCCc1ccc(Cl)cc1Cl | inconclusive: -10.9% | – |
| COc1ccc(CNC(=O)c2cc(=O)c3ccccc3o2)cc1 | inconclusive: -14.7% | – |
| CCOC(=O)C1(CC2CC2)CCN(C(=O)c2cccnc2C)CC1 | inactive | – |

| Structure (SMILES) | lipid storage change, negative = inhibition | Potency |
| --- | --- | --- |
| CCC(C(=O)NCC1CCCO1)N(Cc1ccc(F)cc1)C(=O)CNS(=O)(=O)c1ccccc1 (stereo not given) | inconclusive: 63.7% | – |
| Cn1c(COc2ccccc2)nnc1SCC(=O)NC1CCCC1 | inconclusive: -31.1% | – |
| CC(=O)NCC1CCCN(Cc2cn(-c3ccccc3F)nc2-c2cc(C)sc2C)C1 (stereo not given) | – | inconclusive: 5.8 µM [falling, partial curve] |
| O=C(COc1ccc(Cl)cc1Cl)NCCCN1CCOCC1 | inconclusive: 3.29% | – |
| O=C1CSCN1c1ccc(Cl)c(Cl)c1 | – | inconclusive: 6.51 µM [falling, single point] |
| c1ccc(CNCCN2CCNCC2)nc1 | inconclusive: -11.3% | – |
| CC1CCCN(CCCNC(=O)c2ccc(CS(=O)(=O)c3c(Cl)cccc3Cl)o2)C1 (stereo not given) | inconclusive: 69.8% | – |
| Cc1ccc(CC(=O)Nc2ccc(S(=O)(=O)Nc3nccc(C)n3)cc2)cc1 | inconclusive: 28.8% | – |
| COc1ccc(/C=N/NC(=O)c2snnc2C)c(OC)c1OC | – | inconclusive: 1.3 µM [falling, full curve] |
| Cc1nn(C)cc1/C=C/C(=O)c1cccs1 | inconclusive: -25.6% | – |
| CCCCCn1nc(C(=O)N2CCc3ccccc32)c2ccccc2c1=O | – | inconclusive: 0.92 µM [activator, partial curve] |
| CC(C)CNC(=O)C1CCCN(C(=O)NCc2ccccc2)C1 (stereo not given) | inconclusive: 6.02% | – |
| O=C(NCc1ccccc1CN1CCCC1)c1cccc(S(=O)(=O)N2CCCC2)c1 | – | inconclusive: 5.8 µM [activator, partial curve] |
| O=[N+]([O-])c1ccc(-c2nnc(-c3ccccc3)c(NCCCO)n2)cc1 | – | inconclusive: 0.82 µM [activator, full curve, poor fit] |
| COc1ccccc1NC1=Nc2cccc3cccc1c23 | inconclusive: 0.931% | – |
| CCOc1ccc(-c2n[nH]c(=S)c3ccccc23)cc1 | inconclusive: -46.9% | – |
| Cc1ccn(C(C)CC(=O)Nc2ccc(-c3ccno3)cc2)n1 (stereo not given) | inconclusive: -53.5% | – |
| Cn1ncc2c1ncn1nc(CCc3ccccc3)nc21 | inconclusive: 3.71% | – |
| COC(=O)C(CC(C)C)NC(=O)/C=C/c1ccc(Cl)cc1 (stereo not given) | inconclusive: 11.1% | – |
| CC(C)OCCCNC(=O)c1cc2c(=O)n(C)c3ccccc3c2n1C | inconclusive: -20.1% | – |
| CCCn1nc2cc(C(=O)NCC34CC5CC(CC(C5)C3)C4)ccc2c1OCC | inconclusive: 15.2% | – |
| CCCN(CCC)CCCNC(=S)Nc1ccc2nc(N3CCN(C)CC3)cc(C)c2c1 | inconclusive: 19.4% | – |
| COc1ccc(-c2cc(C(=O)NCCCN3CCOCC3)no2)cc1 | – | inconclusive: 29.1 µM [activator, single point] |
| CN(CC(=O)NC(=O)NCc1ccccc1)Cc1ccc(Cl)c(Cl)c1 | inconclusive: 16.7% | – |
| Cc1ccc(NS(=O)(=O)c2cc([N+](=O)[O-])ccc2NNC(=S)Nc2cc(C)ccc2C)c(C)c1 | inconclusive: 12.4% | – |

Copied from the list.
Value for CC(C)[C@H](NC(N)=O)C(=O)NCCc1ccc(Cl)cc1Cl under lipid storage change, negative = inhibition: inconclusive: -10.9%
Value for Cc1nn(C)cc1/C=C/C(=O)c1cccs1 under lipid storage change, negative = inhibition: inconclusive: -25.6%
Value for CC(C)OCCCNC(=O)c1cc2c(=O)n(C)c3ccccc3c2n1C under lipid storage change, negative = inhibition: inconclusive: -20.1%

Next part.

| Structure (SMILES) | lipid storage change, negative = inhibition | Potency |
| --- | --- | --- |
| CC1CCC(NC(=O)c2cccc(S(=O)(=O)N3CCN(c4ccc(F)cc4)CC3)c2)CC1 (stereo not given) | – | inconclusive: 7.31 µM [falling, full curve, poor fit] |
| O=C1CC(c2ccco2)Cc2nc(Nc3nc(-c4ccccc4)c4ccccc4n3)ncc21 (stereo not given) | inconclusive: 25.2% | – |
| Cc1cc(NC(=O)c2ccccc2)c(Cl)cc1N | inconclusive: 22.4% | – |
| O=S(=O)(Nc1ccc(-c2cn3ccsc3n2)cc1)c1ccc2c(c1)OCCO2 | – | inconclusive: 0.411 µM [activator, full curve, poor fit] |
| COc1cc(OC)c(C(=S)N2CCCC2)cc1OC | – | inconclusive: 29.1 µM [activator, single point] |
| CC(C)Oc1cccc(C(=O)C2CCCN(C(=O)c3cc(C(F)(F)F)[nH]n3)C2)c1 (stereo not given) | – | inconclusive: 0.411 µM [activator, full curve] |
| Cc1ccccc1/C=C/c1nc2ccccc2c(=O)[nH]1 | inconclusive: -21.8% | – |
| O=C(NC1CCCC1)c1ccc(CNc2c(N3CCOCC3)c(=O)c2=O)cc1 | inconclusive: -0.409% | – |
| CCN(CC(=O)Nc1c(F)cccc1F)C(=O)CSCc1c(C)noc1C | – | inconclusive: 0.13 µM [falling, full curve, poor fit] |
| Cc1sc2nc(CSCC(=O)Nc3ccc(Cl)cc3F)[nH]c(=O)c2c1C | – | inconclusive: 14.6 µM [activator, partial curve, poor fit] |
| COc1cccc(/C=N/NC(=O)c2ccccc2NC(=O)c2ccco2)c1OC | inconclusive: -17.1% | – |
| Cc1cccc(OCC(=O)NNC(=O)c2cc(S(=O)(=O)N(C)C)ccc2N2CCCC2)c1 | – | inconclusive: 1.3 µM [activator, partial curve] |
| NC(=O)[C@@H]1[C@@H]2C(=O)N(c3ccc(F)cc3)C(=O)[C@@H]2[C@H]2C=Cc3ccccc3N21 | – | inconclusive: 14.6 µM [falling, partial curve, poor fit] |
| Cc1ccc2nc(/C(C#N)=C\c3ccc(OC(=O)c4cccs4)cc3)[nH]c2c1 | inconclusive: -77% | – |
| CCO/C=C/C(O)(CNC(=O)c1ccc(C(C)(C)C)cc1)C(F)(F)F (stereo not given) | inconclusive: -70.5% | – |
| O=C(COc1ccc2c(c1)OCO2)Nc1nccs1 | – | inconclusive: 0.58 µM [falling, single point] |
| COc1cc(/C=C/c2ccc3cccc(O)c3n2)c(Br)cc1O | inconclusive: 13% | – |
| COc1ccc(-c2noc(CN(C(=O)c3ccc(OC(C)=O)cc3)C(C)C)n2)cc1OC | inconclusive: 84.9% | – |
| c1ccc(-c2noc(-c3ccc4c(c3)OCO4)n2)cc1 | inconclusive: 66.2% | – |
| Cc1cc(CNC(=O)C(C)Cc2ccccc2)nn1C (stereo not given) | inconclusive: -4.11% | – |
| O=C(Nc1n[nH]c(C(F)(F)F)n1)C1CC1 | inconclusive: -26.9% [at 9.22 µM] | – |
| O=S(=O)(NCCCCNS(=O)(=O)c1c(F)cccc1F)c1ccc2c(c1)OCCO2 | inconclusive: 3.66% | – |
| CC(C)(C)NC(=O)COc1ccccc1C#N | – | inconclusive: 0.146 µM [falling, full curve] |
| Cc1ccc(C2CC(c3ccco3)n3ncnc3N2)cc1 (stereo not given) | – | inconclusive: 6.51 µM [rising, single point] |
| Cc1ccc(S(=O)(=O)Nc2ccc3ncccc3c2)cc1 | – | inconclusive: 16.4 µM [falling, partial curve] |
